According to patent US11186605B2 (KYOWA HAKKO BIO CO., LTD., priority 2016, dated 2021):

Conditions: mass ppm in crystal; N.D. = below a detection limit

Substance	Residual solvent Ethanol	Residual solvent Ethyl acetate	Residual solvent Methanol
cytidine diphosphate choline [Comparative Example 2]	412 ppm	667 ppm	3937 ppm
cytidine diphosphate choline [Example 4]	340 ppm		
cytidine diphosphate choline [Example 1]	177 ppm		
cytidine diphosphate choline [Comparative Example 1]		240 ppm	2482 ppm
cytidine diphosphate choline [Example 2]	173 ppm		
cytidine diphosphate choline [Product of company A]	201 ppm		64 ppm
cytidine diphosphate choline [Product of company C]	305 ppm		26 ppm
cytidine diphosphate choline [Product of company B]	130 ppm		42 ppm
cytidine diphosphate choline [Comparative Example 4]	490 ppm		
cytidine diphosphate choline [Comparative Example 3]	170 ppm		
cytidine diphosphate choline [Example 3]	423 ppm		
